These are yes or no findings as the source states them, for the method shown. In cells and extracts the contact can be indirect. Some entries that bind do so weakly or less than the wild type. For part of these data: Where a sequence is shown, tags or fusion partners need not be part of it.
T1: FLAG-mIRF-7 (mouse IRF-7 with N-terminal FLAG tag, from pEF-BOS-FLAG-mIRF-7 or pCSII-EF-FLAG-mIRF7-IRES2-Venus) (mouse) (UniProt P70434)
T1 sequence (looked up): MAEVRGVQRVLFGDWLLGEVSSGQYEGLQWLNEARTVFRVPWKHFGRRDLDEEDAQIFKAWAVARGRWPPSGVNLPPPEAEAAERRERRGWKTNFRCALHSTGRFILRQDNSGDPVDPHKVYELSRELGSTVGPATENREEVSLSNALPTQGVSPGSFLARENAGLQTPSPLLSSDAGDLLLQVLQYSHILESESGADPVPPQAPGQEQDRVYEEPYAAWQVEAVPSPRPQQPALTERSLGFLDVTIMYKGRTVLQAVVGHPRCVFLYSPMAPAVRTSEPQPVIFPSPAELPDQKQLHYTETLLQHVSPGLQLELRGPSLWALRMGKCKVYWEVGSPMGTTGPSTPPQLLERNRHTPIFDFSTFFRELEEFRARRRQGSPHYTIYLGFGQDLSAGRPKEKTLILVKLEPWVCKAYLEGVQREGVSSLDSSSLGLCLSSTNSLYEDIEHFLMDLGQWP

T2: IRF-7 (endogenous, mouse Flt3L-induced bone marrow dendritic cells) (mouse) (UniProt P70434)
T2 sequence (looked up): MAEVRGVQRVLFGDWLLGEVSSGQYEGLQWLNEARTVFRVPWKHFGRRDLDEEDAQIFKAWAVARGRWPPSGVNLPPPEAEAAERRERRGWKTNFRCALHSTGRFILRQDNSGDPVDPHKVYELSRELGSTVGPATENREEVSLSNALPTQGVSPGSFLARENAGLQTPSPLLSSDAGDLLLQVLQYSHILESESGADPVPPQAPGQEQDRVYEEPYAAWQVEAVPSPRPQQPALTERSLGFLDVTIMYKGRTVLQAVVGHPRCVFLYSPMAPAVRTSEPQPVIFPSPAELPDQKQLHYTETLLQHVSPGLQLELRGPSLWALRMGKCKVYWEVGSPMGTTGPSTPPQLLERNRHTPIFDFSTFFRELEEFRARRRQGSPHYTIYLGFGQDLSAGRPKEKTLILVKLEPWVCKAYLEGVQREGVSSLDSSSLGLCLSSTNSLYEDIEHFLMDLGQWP


Tests used:
[1] = molecular target: T1, FLAG-mIRF-7 (mouse IRF-7 with N-terminal FLAG tag, from pEF-BOS-FLAG-mIRF-7 or pCSII-EF-FLAG-mIRF7-IRES2-Venus) (mouse); test: co-immunoprecipitation (anti-Flag M2 / anti-Myc PL14) and Western blot from lysate of transfected 293T cells
[2] = molecular target: T2, IRF-7 (endogenous, mouse Flt3L-induced bone marrow dendritic cells) (mouse); test: co-immunoprecipitation (rabbit anti-IRF-7) and Western blot (anti-IKKα M-280) of endogenous proteins from wild-type Flt3L BM DC lysate
[3] = molecular target: T1, FLAG-mIRF-7 (mouse IRF-7 with N-terminal FLAG tag, from pEF-BOS-FLAG-mIRF-7 or pCSII-EF-FLAG-mIRF7-IRES2-Venus) (mouse); test: co-immunoprecipitation (anti-FLAG M2) and Western blot (anti-IKKα M-280) from lysate of GM-CSF BM DC expressing FLAG-mIRF7 by lentivirus

| binding [1] | binding [2] | binding [3] | Binder |
| --- | --- | --- | --- |
| binds |  |  | 6myc-mIKKα (wild-type mouse IKKα with 6 myc tags, expressed from pSRα-6myc-mIKKα in 293T cells) (enzyme, UniProt Q60680 1-745, looked up, not shown: small tags and cut ends) MERPPGLRPGAGGPWEMRERLGTGGFGNVSLYQHRELDLKIAIKSCRLELSSKNRERWCHEIQIMKKLDHANVVKACDVPEELNFLINDVPLLAMEYCSGGDLRKLLNKPENCCGLKESQILSLLSDIGSGIRYLHENKIIHRDLKPENIVLQDVGGKTIHKIIDLGYAKDVDQGSLCTSFVGTLQYLAPELFENKPYTATVDYWSFGTMVFECIAGYRPFLHHLQPFTWHEKIKKKDPKCIFACEEMTGEVRFSSHLPQPNSLCSLIVEPMESWLQLMLNWDPQQRGGPIDLTLKQPRCFALMDHILNLKIVHILNMTSAKIISFLLPCDESLHSLQSRIERETGINTGSQELLSETGISLDPRKPASQCVLDGVRGCDSYMVYLFDKSKTVYEGPFASRSLSDCVNYIVQDSKIQLPIIQLRKVWAEAVHYVSGLKEDYSRLFQGQRAAMLSLLRYNANLTKMKNTLISASQQLKAKLEFFRKSIQLDLERYSEQMTYGISSEKMLKAWKEMEEKAIHYSEVGVIGYLEDQIMSLHTEIMELQKSPYGRRQGDLMESLEQRAIDLYKQLKHRPPDHLYSDSTEMVKIIVHTVQSQDRVLKELFGHLSKLLGCKQKIIDLLPKVEVALSNIKEADNTVMFMQGKRQKEIWHLLKIACTQSSARSLVGSSLEGTVTPPVSAWLPPTLADREHPLTCVVTPQDGETLAQMIEENLNCLGHLSTIIREANEDQSSSLMSLDWSWLAE |
|  | binds | binds | IKKα (endogenous, mouse bone marrow dendritic cells) (enzyme, UniProt Q60680 1-745, looked up) MERPPGLRPGAGGPWEMRERLGTGGFGNVSLYQHRELDLKIAIKSCRLELSSKNRERWCHEIQIMKKLDHANVVKACDVPEELNFLINDVPLLAMEYCSGGDLRKLLNKPENCCGLKESQILSLLSDIGSGIRYLHENKIIHRDLKPENIVLQDVGGKTIHKIIDLGYAKDVDQGSLCTSFVGTLQYLAPELFENKPYTATVDYWSFGTMVFECIAGYRPFLHHLQPFTWHEKIKKKDPKCIFACEEMTGEVRFSSHLPQPNSLCSLIVEPMESWLQLMLNWDPQQRGGPIDLTLKQPRCFALMDHILNLKIVHILNMTSAKIISFLLPCDESLHSLQSRIERETGINTGSQELLSETGISLDPRKPASQCVLDGVRGCDSYMVYLFDKSKTVYEGPFASRSLSDCVNYIVQDSKIQLPIIQLRKVWAEAVHYVSGLKEDYSRLFQGQRAAMLSLLRYNANLTKMKNTLISASQQLKAKLEFFRKSIQLDLERYSEQMTYGISSEKMLKAWKEMEEKAIHYSEVGVIGYLEDQIMSLHTEIMELQKSPYGRRQGDLMESLEQRAIDLYKQLKHRPPDHLYSDSTEMVKIIVHTVQSQDRVLKELFGHLSKLLGCKQKIIDLLPKVEVALSNIKEADNTVMFMQGKRQKEIWHLLKIACTQSSARSLVGSSLEGTVTPPVSAWLPPTLADREHPLTCVVTPQDGETLAQMIEENLNCLGHLSTIIREANEDQSSSLMSLDWSWLAE |

From patent US20100068807A1
